These are yes or no findings as the source states them, for the method shown. For some assays here: Binding seen in cells or lysates may run through a third protein. Some results given as binding are weak or reduced against the parent protein; the word gives no strength. For some assays here: Sequences can lack the tags named with a protein.

By UniProt entry, the sequences of proteins in these tests, tags left out. Where a name states a change or a piece, a line headed by the entry shows the natural chain unless it says otherwise.
UniProt O00629: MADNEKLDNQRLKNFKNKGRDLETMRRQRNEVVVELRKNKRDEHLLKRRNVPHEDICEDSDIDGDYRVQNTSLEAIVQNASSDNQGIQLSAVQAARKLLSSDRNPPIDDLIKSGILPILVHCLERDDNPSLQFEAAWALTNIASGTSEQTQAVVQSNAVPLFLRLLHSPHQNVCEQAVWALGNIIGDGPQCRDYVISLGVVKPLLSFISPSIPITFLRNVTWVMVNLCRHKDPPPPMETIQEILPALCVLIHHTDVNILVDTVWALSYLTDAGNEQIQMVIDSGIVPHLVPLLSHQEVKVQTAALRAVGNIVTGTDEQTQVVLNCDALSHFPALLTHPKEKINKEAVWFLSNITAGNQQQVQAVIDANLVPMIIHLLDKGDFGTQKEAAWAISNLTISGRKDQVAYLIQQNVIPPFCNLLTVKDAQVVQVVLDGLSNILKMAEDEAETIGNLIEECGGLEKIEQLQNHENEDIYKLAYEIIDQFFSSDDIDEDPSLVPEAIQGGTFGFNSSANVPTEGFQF
UniProt P52294: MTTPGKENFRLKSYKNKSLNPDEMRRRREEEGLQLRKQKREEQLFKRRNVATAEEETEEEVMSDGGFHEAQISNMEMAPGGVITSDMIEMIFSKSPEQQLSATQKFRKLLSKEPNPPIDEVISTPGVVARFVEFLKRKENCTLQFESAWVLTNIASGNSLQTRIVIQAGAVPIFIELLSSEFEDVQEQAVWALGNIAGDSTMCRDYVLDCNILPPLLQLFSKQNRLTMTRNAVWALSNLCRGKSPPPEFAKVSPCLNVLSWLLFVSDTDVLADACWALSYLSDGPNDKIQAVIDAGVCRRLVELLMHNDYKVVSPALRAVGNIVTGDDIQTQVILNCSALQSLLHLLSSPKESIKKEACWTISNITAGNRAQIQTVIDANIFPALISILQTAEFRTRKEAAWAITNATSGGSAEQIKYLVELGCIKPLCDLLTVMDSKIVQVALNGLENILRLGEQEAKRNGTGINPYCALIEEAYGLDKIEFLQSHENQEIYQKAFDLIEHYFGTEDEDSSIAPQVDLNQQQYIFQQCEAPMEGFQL
UniProt Q14974: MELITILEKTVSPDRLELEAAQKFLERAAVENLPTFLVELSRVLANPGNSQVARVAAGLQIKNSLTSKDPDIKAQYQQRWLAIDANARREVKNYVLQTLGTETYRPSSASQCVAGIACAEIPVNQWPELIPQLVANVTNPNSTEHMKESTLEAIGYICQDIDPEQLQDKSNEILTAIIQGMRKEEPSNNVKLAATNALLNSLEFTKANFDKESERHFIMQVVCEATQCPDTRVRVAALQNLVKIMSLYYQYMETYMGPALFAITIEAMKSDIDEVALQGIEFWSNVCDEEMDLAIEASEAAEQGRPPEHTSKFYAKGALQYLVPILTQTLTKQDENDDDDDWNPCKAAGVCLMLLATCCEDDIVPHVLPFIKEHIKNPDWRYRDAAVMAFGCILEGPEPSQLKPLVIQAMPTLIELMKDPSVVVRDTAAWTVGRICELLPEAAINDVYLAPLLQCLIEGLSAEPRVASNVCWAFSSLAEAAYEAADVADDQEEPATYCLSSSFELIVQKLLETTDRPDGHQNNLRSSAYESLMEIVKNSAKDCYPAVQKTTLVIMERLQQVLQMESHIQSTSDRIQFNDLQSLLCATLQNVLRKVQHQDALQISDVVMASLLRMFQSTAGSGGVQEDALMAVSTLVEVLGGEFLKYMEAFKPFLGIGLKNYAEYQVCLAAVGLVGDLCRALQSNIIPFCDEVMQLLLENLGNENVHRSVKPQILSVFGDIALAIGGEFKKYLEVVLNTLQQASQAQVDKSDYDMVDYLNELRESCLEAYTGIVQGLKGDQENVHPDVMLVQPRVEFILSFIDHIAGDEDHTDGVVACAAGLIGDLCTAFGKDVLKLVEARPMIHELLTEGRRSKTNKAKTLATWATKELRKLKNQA
UniProt P03372: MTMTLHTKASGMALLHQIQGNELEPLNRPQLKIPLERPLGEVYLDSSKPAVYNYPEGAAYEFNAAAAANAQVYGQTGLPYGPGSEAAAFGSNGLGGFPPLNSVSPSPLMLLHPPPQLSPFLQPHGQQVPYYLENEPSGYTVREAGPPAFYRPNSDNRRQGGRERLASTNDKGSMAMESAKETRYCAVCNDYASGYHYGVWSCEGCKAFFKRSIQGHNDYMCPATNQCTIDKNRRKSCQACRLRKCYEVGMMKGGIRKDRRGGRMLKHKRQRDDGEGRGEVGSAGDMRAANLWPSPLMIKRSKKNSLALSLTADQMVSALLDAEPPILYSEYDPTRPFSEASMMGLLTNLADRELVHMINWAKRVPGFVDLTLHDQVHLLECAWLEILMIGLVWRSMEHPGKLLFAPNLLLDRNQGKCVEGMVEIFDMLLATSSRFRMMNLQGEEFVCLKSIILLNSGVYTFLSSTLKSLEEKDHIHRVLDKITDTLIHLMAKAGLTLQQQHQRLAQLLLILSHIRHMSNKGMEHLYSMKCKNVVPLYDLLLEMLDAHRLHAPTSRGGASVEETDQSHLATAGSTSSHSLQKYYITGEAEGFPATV

Assay [1] concerns the target GST-importin-α4 (human) (UniProt O00629). Kind of assay: pull-down; competition: GST-importin-α1 or GST-importin-α4 on glutathione Sepharose beads incubated with lysate of E2-treated (10 nM) HeLa cells expressing 3 × HA-ERα, washed, then incubated with different amounts of TNPO2; bound fraction blotted for HA; only the target purified.
The next assay concerns the target GST-importin-α1 (human) (UniProt P52294). In words: pull-down; as a1, in the absence of E2 only: 50 pmol GST fusion protein on Glutathione Sepharose 4B mixed with lysate of transfected HeLa cells; only the target purified.
Another assay concerns the target GST-importin-β1 (human) (UniProt Q14974). In words: pull-down; 50 pmol GST fusion protein on Glutathione Sepharose 4B mixed with lysate of transfected HeLa cells; cells untreated or treated with 10 nM E2; lysis buffer 20 mM HEPES/NaOH pH 7.3, 150 mM NaCl, 5 mM MgCl2, 0.05% Tween-20; western blot for HA; only the target purified. In general terms: In western blotting, separated proteins are transferred to a membrane and probed.

Assay [2] has as its target GST-importin-α4 (human) (UniProt O00629). Described as above.
Assay [3] concerns the target T1, GST-TNPO2 (Transportin-2) (human) (UniProt O14787).
T1 sequence: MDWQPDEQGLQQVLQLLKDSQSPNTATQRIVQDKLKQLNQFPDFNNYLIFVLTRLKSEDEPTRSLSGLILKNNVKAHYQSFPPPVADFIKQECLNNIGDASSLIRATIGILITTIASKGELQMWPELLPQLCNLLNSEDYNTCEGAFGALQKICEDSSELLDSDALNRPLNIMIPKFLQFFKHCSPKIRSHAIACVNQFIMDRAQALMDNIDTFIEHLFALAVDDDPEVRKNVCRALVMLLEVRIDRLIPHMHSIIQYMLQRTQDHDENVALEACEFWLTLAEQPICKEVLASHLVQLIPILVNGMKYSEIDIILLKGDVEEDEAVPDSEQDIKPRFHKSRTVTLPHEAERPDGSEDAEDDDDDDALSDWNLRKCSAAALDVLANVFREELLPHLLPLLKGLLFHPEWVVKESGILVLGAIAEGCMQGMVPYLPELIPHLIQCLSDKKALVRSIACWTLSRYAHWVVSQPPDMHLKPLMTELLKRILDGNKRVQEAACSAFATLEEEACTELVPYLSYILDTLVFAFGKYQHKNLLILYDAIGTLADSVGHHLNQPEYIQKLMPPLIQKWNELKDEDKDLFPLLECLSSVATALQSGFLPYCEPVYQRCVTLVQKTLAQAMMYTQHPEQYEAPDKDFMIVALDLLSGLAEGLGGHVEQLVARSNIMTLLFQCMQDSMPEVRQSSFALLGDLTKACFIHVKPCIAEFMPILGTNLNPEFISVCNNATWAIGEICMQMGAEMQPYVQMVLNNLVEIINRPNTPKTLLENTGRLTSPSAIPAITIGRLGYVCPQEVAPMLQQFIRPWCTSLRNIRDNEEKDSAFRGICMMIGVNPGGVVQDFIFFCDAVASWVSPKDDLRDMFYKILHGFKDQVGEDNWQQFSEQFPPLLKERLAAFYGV
The assay is described as above.

The target of assay [4] is T1, GST-TNPO2 (Transportin-2) (human). In words: pull-down; recombinant GST-TNPO2 with recombinant 3 × Flag-importin-α1 or 3 × Flag-importin-α4 (Supplementary Fig. 6); both purified.

With “3 × HA-ERα (oestrogen receptor-α, wild type) (from UniProt P03372 1-595)”, the binding entry in the assay with GST-importin-α4 (human) [1] was “binds”; with GST-importin-α1 (human), “binds weakly”; with GST-importin-β1 (human), “binds”; in the assay with GST-importin-α4 (human) [2], “binds”; in assay [3], “binds”.

For the substance “3 × HA-ERαΔ2 (from UniProt P03372 181-595) (domain or fragment)”, the binding entry in assay [3] is recorded as “binds”.

Consider “recombinant 3 × Flag-importin-α1 (from UniProt P52294 1-538)”, for which the binding entry in assay [4] was “no binding”.

As for “recombinant 3 × Flag-importin-α4 (from UniProt O00629 1-521)”, in assay [4], the binding entry is recorded as “no binding”.

These data come from article PMC7596556.
